Test results taken from US20050203117A1, “Treating allergic and inflammatory conditions” (priority 2002, published 2005).

Conditions: over 3,200 seasonal allergic rhinitis patients, 4 double-blind, randomized clinical trials

## Clc1ccc2c(c1)CCc1cccnc1C2=C1CCNCC1 [desloratadine]
  clinical efficacy in seasonal rhinitis: demonstrated the efficacy
